# Measured data: PubChem BioAssay AID1224829 (NIAID, 2016)
# Test: 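Follow-up of TLR4-NF-kappaB regulators using six separate siRNAs for each gene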 (follow-up of hits)
# Cell system: mouse RAW264.7 G9 macrophage reporter cells
# Knock-down reagent: single siRNA against mouse genes, 100 nM
# Duration: 2 days of siRNA knock-down, then 40 min of LPS before fixing
# Challenge: LPS (Salmonella minnesota R595) at 10 ng/ml
# Detection: 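High-content images after 40 min LPS exposure; GFP-p65 nucleus to surrounding ring signal ratio, normalised to plate median and non-targeting control wells, expressed as z-score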
# Direction: p65 translocation z-score: higher = more nuclear NF-kappaB p65 after LPS
# Call rule: 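An siRNA is called active when the mean z-score of its two replicates is above 2 or below -2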
# Calls: active = changed p65 translocation (either direction); inactive = no clear change
# Shown is a random part of about 3,800 reagents. 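Calls cover raised and lowered translocation; gene median uses one vendor's three siRNAs; qiagen siRNAs acted more weakly than ambion siRNAs.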 Reagents against one gene are numbered here. Further read-outs or replicates are left out here.
gene symbol,reagent,siRNA vendor or control pool,"p65 translocation z-score, replicate mean","p65 translocation z-score, replicate 1","p65 translocation z-score, replicate 2",call
Eloc,1,ambion single siRNA,-1.93,-0.824,-3.03,inactive
Eloc,2,ambion single siRNA,-3.68,-3.94,-3.42,active
Eloc,3,ambion single siRNA,-3.72,-1.61,-5.83,active
Eloc,4,qiagen single siRNA,-1.98,-1.39,-2.58,inactive
Eloc,5,qiagen single siRNA,-0.0145,-1.13,1.1,inactive
Eloc,6,qiagen single siRNA,-0.157,1.08,-1.4,inactive
Il17a,1,ambion single siRNA,11,12.7,9.32,active
Il17a,2,ambion single siRNA,1.23,2.18,0.273,inactive
Il17a,3,ambion single siRNA,-2.24,-2.02,-2.46,active
Il17a,4,qiagen single siRNA,-1.34,0.711,-3.39,inactive
Il17a,5,qiagen single siRNA,-0.175,0.106,-0.457,inactive
Il17a,6,qiagen single siRNA,0.285,0.285,,inactive
Mtmr3,1,ambion single siRNA,-0.694,-0.145,-1.24,inactive
Mtmr3,2,ambion single siRNA,-1.19,-1.51,-0.873,inactive
Mtmr3,3,ambion single siRNA,-9.78,-9.78,,active
Mtmr3,4,qiagen single siRNA,-0.626,-1.08,-0.17,inactive
Mtmr3,5,qiagen single siRNA,-0.266,-0.155,-0.377,inactive
Mtmr3,6,qiagen single siRNA,-5.58,-4.69,-6.48,active
Ifna4,1,ambion single siRNA,2.85,2.34,3.36,active
Ifna4,2,ambion single siRNA,-5.97,-8.2,-3.74,active
Ifna4,3,ambion single siRNA,-3.91,-5.3,-2.51,active
Ifna4,4,qiagen single siRNA,0.268,1.39,-0.858,inactive
Ifna4,5,qiagen single siRNA,-0.715,-0.0547,-1.38,inactive
Ifna4,6,qiagen single siRNA,-1.75,-1.75,,inactive
Chst14,1,ambion single siRNA,-3.14,-2.02,-4.26,active
Chst14,2,ambion single siRNA,-1.06,-2.84,0.72,inactive
Chst14,3,ambion single siRNA,-1.27,-1.4,-1.13,inactive
Chst14,4,qiagen single siRNA,0.476,-0.212,1.16,inactive
Chst14,5,qiagen single siRNA,-0.308,-2.15,1.53,inactive
Chst14,6,qiagen single siRNA,-5.21,-5.21,,active

Next part, starting with the last 6 of the part before.
gene symbol,reagent,siRNA vendor or control pool,"p65 translocation z-score, replicate mean","p65 translocation z-score, replicate 1","p65 translocation z-score, replicate 2",call
Chst14,1,ambion single siRNA,-3.14,-2.02,-4.26,active
Chst14,2,ambion single siRNA,-1.06,-2.84,0.72,inactive
Chst14,3,ambion single siRNA,-1.27,-1.4,-1.13,inactive
Chst14,4,qiagen single siRNA,0.476,-0.212,1.16,inactive
Chst14,5,qiagen single siRNA,-0.308,-2.15,1.53,inactive
Chst14,6,qiagen single siRNA,-5.21,-5.21,,active
D6Ertd160e,1,qiagen single siRNA,2.06,1.97,2.16,active
D6Ertd160e,2,qiagen single siRNA,-0.0358,-1.25,1.18,inactive
D6Ertd160e,3,qiagen single siRNA,-0.401,-0.155,-0.647,inactive
Pawr,1,qiagen single siRNA,2.08,1.35,2.81,active
Pawr,2,qiagen single siRNA,1.14,0.301,1.98,inactive
Pawr,3,qiagen single siRNA,-0.893,-0.448,-1.34,inactive
1700010I14Rik,1,ambion single siRNA,0.563,0.574,0.552,inactive
1700010I14Rik,2,ambion single siRNA,2.58,2.11,3.06,active
1700010I14Rik,3,ambion single siRNA,-3.97,-3.31,-4.63,active
1700010I14Rik,4,qiagen single siRNA,2.52,2.55,2.49,active
1700010I14Rik,5,qiagen single siRNA,1.35,0.309,2.4,inactive
1700010I14Rik,6,qiagen single siRNA,2.72,2.15,3.29,active
Fga,1,ambion single siRNA,2.26,2.37,2.14,active
Fga,2,ambion single siRNA,-4.33,-4.06,-4.59,active
Fga,3,ambion single siRNA,2.68,2.98,2.37,active
Fga,4,qiagen single siRNA,2.43,0.222,4.65,active
Fga,5,qiagen single siRNA,-1.64,-2,-1.28,inactive
Fga,6,qiagen single siRNA,2.1,1.43,2.78,active
Mrps23,1,ambion single siRNA,-1.23,-2.27,-0.177,inactive
Mrps23,2,ambion single siRNA,1.01,0.67,1.35,inactive
Mrps23,3,ambion single siRNA,-5.12,-5.14,-5.09,active
Mrps23,4,qiagen single siRNA,0.948,-0.0268,1.92,inactive
Mrps23,5,qiagen single siRNA,0.734,-0.208,1.68,inactive
Mrps23,6,qiagen single siRNA,-0.422,-1.33,0.487,inactive
